# Laboratory results taken from paper PMC9714242.
# Protein sequences, listed by entry. Tags and fused reporters are not part of them. Lines headed by an entry give the natural chain unless they say otherwise; changes in a name come on top. Residues count along the entry.
# UniProt Q9H6I2: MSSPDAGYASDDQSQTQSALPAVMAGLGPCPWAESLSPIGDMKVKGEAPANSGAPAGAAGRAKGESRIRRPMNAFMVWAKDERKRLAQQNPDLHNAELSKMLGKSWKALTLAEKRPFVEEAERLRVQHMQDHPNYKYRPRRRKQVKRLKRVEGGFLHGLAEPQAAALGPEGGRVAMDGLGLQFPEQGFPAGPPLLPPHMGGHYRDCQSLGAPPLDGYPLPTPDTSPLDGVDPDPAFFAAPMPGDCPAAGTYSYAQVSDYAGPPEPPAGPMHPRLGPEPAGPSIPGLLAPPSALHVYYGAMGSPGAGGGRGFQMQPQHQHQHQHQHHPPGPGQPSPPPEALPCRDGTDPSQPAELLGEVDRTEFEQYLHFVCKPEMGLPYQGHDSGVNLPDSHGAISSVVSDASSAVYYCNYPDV
# MBP-SOX17^88–287: residues 88-287 of Q9H6I2
# MBP-SOX17^216–414: residues 216-414 of Q9H6I2
# UniProt P36402: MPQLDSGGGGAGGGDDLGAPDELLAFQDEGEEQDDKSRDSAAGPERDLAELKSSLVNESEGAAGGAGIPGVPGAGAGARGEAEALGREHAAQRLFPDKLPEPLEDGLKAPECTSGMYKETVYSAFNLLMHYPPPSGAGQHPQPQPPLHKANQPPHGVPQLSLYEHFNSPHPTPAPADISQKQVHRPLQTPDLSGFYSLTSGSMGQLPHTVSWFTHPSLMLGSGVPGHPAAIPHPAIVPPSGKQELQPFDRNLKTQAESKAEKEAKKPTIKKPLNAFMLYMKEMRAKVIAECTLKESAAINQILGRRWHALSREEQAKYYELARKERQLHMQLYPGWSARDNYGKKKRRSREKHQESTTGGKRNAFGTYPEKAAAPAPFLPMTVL
# MBP-TCF7^152–359: residues 152-359 of P36402
# UniProt P05412: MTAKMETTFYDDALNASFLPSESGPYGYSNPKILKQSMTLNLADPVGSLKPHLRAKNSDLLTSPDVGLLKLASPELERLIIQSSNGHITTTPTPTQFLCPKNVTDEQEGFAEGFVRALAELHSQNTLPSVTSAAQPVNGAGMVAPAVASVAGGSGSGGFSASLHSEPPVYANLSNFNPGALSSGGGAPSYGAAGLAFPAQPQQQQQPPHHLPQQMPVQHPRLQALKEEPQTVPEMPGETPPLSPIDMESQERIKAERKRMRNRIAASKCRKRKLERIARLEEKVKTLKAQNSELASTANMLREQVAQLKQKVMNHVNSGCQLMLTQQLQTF
# MBP-JUN^100–331: residues 100-331 of P05412
# GST-APC^954–1203 (P25054, residues 954-1203): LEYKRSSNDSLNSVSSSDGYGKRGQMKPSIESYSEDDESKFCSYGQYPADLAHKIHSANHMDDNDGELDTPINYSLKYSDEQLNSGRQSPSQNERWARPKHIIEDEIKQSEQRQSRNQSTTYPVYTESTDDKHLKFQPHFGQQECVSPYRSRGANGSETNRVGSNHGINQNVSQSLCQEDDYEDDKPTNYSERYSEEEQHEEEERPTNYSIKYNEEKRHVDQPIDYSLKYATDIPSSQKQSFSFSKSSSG
# GST-APC^1512–1761 (P25054, residues 1512-1761): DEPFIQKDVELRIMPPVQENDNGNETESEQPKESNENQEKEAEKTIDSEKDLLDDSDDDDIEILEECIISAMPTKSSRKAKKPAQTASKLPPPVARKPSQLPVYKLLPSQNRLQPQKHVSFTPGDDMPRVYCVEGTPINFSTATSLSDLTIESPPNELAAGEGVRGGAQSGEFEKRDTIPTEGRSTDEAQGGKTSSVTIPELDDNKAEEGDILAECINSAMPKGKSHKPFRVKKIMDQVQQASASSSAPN
# GST-APC^1956–2232 (P25054, residues 1956-2232): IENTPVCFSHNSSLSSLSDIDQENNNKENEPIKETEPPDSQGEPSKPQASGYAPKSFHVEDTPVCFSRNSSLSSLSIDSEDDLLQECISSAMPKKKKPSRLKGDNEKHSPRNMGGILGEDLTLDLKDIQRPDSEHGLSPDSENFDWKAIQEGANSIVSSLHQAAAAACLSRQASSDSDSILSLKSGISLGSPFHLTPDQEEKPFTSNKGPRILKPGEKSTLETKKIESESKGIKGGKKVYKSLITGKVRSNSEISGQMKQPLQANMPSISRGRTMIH
# GST-APC^2539–2772 (P25054, residues 2539-2772): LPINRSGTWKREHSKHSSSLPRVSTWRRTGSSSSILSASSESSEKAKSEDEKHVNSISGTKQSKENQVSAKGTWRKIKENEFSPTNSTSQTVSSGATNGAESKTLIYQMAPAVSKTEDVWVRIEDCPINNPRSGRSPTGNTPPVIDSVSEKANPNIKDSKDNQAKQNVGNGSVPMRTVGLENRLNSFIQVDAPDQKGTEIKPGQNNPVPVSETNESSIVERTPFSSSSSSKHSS
# These are yes or no findings as the source states them, for the method shown. In cells and extracts the contact can be indirect. Some binding calls cover weakened binding; strength is not graded here.
# Experiments:
# Experiment in all cases: pull-down; MBP-tagged protein from E. coli lysate bound to amylose resin and washed (1x TBS); soluble lysate of GST-tagged APC fragment added, 2 h at 4 °C; four washes, elution with 10 mM maltose; Western blot with anti-GST and anti-MBP; only the target purified
# MBP-SOX17^FL (human) = MBP-SOX17^FL (human) (UniProt Q9H6I2)
# MBP-TCF7^152–359 (human) = MBP-TCF7^152–359 (human) (UniProt P36402)
# [1] = biological target: MBP-SOX17^216–414 (human) (UniProt Q9H6I2)
# MBP-JUN^100–331 (human) = MBP-JUN^100–331 (human) (UniProt P05412)
# MBP-SOX17^88–287 (human) = MBP-SOX17^88–287 (human) (UniProt Q9H6I2)
# MBP-JUN^FL (human) = MBP-JUN^FL (human) (UniProt P05412)
# MBP-TCF7^FL (human) = MBP-TCF7^FL (human) (UniProt P36402)
substance,measurement,setting,value
GST-APC^954–1203 (from UniProt P25054 954-1203) (domain or fragment),binding,MBP-SOX17^FL (human),binds
same,binding,MBP-TCF7^152–359 (human),binds
same,binding,[1],binds
GST-APC^1512–1761 (from UniProt P25054 1512-1761) (domain or fragment),binding,MBP-JUN^100–331 (human),binds
GST-APC^1956–2232 (from UniProt P25054 1956-2232) (domain or fragment),binding,MBP-SOX17^FL (human),binds
same,binding,MBP-SOX17^88–287 (human),binds
same,binding,[1],binds
GST-APC^2539–2772 (from UniProt P25054 2539-2772) (domain or fragment),binding,MBP-JUN^FL (human),binds
same,binding,MBP-TCF7^152–359 (human),binds
same,binding,MBP-JUN^100–331 (human),binds
same,binding,MBP-TCF7^FL (human),binds
